This note sets out measurements from patent publication US20240108662A1, “ENGINEERED CELLS FUNCTIONALIZED WITH IMMUNE CHECKPOINT MOLECULES AND USES THEREOF” (The University of North Carolina at Chapel Hill, priority 2020, published 2024).

A short description of this data set: Proteomic analysis of native murine pancreata and decelled pancreatic ECM (Table 1). The arrangement: species or system mouse. The note with it: for Pancreatic ECM: Mean of log2(intensities): abundance of the listed protein in decelled pancreatic ECM; for Native pancreas tissue: Mean of log2(intensities): abundance of the listed protein in native murine pancreas tissue.

B1: O88697 (protein, UniProt O88697 1-305, looked up)
chain: MGHALCVCSRGTVIIDNKRYLFVQKLGEGGFSYVDLVEGLHDGHFYALKRILCHEQQDQEEAQREAEMHRLFQHPNILRLMAYSLKERGAKHEAWLLLPFFKKGTLWNEIERLKDQGSFLTEDQILPLLLGISRGLEAIHAKGYAHRDLKPTNILLGDEGQPVLMDLGSMNQACIQVEGSRQALALQDWAAQRCTISYRAPELFSVQSHCVIDERTDVWSLGCVLYAMMFGEGPYDMVFQKGDSVALAVQNELSIPQSPRHSSALRQLLSSMMTVDPQQRPHIPVLLSQLEALQPPAPGQHTTQI
modifications: full-length
B1: the “Pancreatic ECM: Mean of log2(intensities)” value is on record as 26.83 a.u and the “Native pancreas tissue: Mean of log2(intensities)” value is 21.01 a.u.

B2: Q91YH5 (protein, UniProt Q91YH5 1-541, looked up)
chain: MLSPQRTAAVASRGAGDAMENGKPGPVQVVLVHKEQHSFELEERALASVLLQDHIRDLDVVVVSVAGAFRKGKSFILDFMLRYLYSQKEGGHSDWLGDPEEPLTGFSWRGGSDPETTGIQIWSEVFTVKKPCGKKVAVVLMDTQGAFDSQSTVKDCATIFALSTMTSSVQIYNLSQNIQEDDLQQLQLFTEYGRLAMDEIFQKPFQTLMFLIRDWSFPYEYNYGLQGGMAFLDKRLHVKEHQHEEIQNVRNHIHSCFSDVTCFLLPHPGLQVATSPNFDGKLKDIASEFKEQLQALIPYVLNPSKLMEKEINGSKVTCRGLLEYFKAYIKIYQGEDLPHPKSMLQATAEANNLAAAASAKDIYYNNMEEICGGEKPYLSPDILEEKHLEFKQLALDHFKKIKKMGGKDFSFRYQQELEEEIKELYENFCKHNGSKNVFSTFRTPAVLFTGIAALYIASGFTGFIGLEVVAQLFNCMVGLLLIALLTWGYIRYSGQYRELGGAIDSGAAYVLEQASSHIGNSTQAAVRDAVVGRPPADKKSQ
modifications: full-length
Take B2: the “Pancreatic ECM: Mean of log2(intensities)” value came out at 27.53 a.u and the “Native pancreas tissue: Mean of log2(intensities)” value is recorded as 21.23 a.u.

B3: Q5SYD0 (protein, UniProt Q5SYD0 1-1006, looked up)
chain: MAEQESLEFGKADFVLMDTVSMPEFMANLRLRFEKGRIYTFIGEVVVSVNPYKVLNIYGRDTVEQYKGRELYERPPHLFAIADAAYKAMKRRSKDTCIMISGESGAGKTEASKYIMQYIAAITNPSQRAEIERVKNMLLKSNCVLEAFGNAKTNRNDNSSRFGKYMDINFDFKGDPIGGHINNYLLEKSRVIVQQPGERSFHSFYQLLQGGSEQMLHSLHLQKSLSSYNYIRVGAQLKSSINDAAEFKVVADAMKVIGFKPEEIQTVYKILAVILHLGNLKFIVDGDTPLIENGKVVSVIAELLSTKADMVEKALLYRTVATGRDIIDKQHTEQEASYGRDAFAKAIYERLFCWIVTRINDIIEVKNYDTTIHGKNTVIGVLDIYGFEIFDNNSFEQFCINYCNEKLQQLFIQLVLKQEQEEYQREGIPWKHIDYFNNQIIVDLVEQQHKGIIAILDDACMNVGKVTDGMFLEALNSKLGKHGHFSSRKTCASDKILEFDRDFRIRHYAGDVVYSAIGFIDKNKDTLFQDFKRLMYNSSNPVLKNMWPEGKLSITEVTKRPLTAATLFKNSMIALVDNLASKEPYYVRCIKPNDKKSPQIFDDERCRHQVEYLGLLENVRVRRAGFAFRQTYEKFLHRYKMISEFTWPNHDLPSDKEAVKKLIERCGFQDDVAYGKSKIFIRTPRTLFTLEELRAQMLVRVVLFLQKVWRGTLARMRYKRTKAALTIIRYYRRYKVKSYIHEVARRFHGVKNMRDYGKHVKWPTPPKVLRRFEEALQSIFNRWRASQLIKTIPASDLPQVRAKVAAMEMLKGQRADLGLQRAWEGNYLASKPDTPQTSGTFVPVANELKRKDKYMNVLFSCHVRKVNRFSKVEDRAIFVTDRHLYKMDPTKQYKVMKTIPLYNLTGLSVSNGKDQLVVFHTKDNKDLIVCLFSKQPTHESRIGELVGVLVNHFKSEKRHLQVNVTNPVQCSLHGKKCTVSVETRLNQPQPDFTKNRSGFILSVPGN
modifications: full-length
On to B3, for which the “Pancreatic ECM: Mean of log2(intensities)” value is reported as 27.11 a.u and the “Native pancreas tissue: Mean of log2(intensities)” value is listed as 22.08 a.u.

B4: Q91ZW3 (protein, UniProt Q91ZW3 1-1051, looked up)
chain: MSSAVEPPPPPPPESAPSKPSAAGAGGSSSGNKGGPEGGAAPAAPCAAGSGPADTEMEEVFDHGSPGKQKEIQEPDPTYEEKMQTDRANRFEYLLKQTELFAHFIQPAAQKTPTSPLKMKPGRPRVKKDEKQNLLSVGDYRHRRTEQEEDEELLTESSKATNVCTRFEDSPSYVKWGKLRDYQVRGLNWLISLYENGINGILADEMGLGKTLQTISLLGYMKHYRNIPGPHMVLVPKSTLHNWMSEFKKWVPTLRSVCLIGDKEQRAAFVRDVLLPGEWDVCVTSYEMLIKEKSVFKKFNWRYLVIDEAHRIKNEKSKLSEIVREFKTTNRLLLTGTPLQNNLHELWSLLNFLLPDVFNSADDFDSWFDTNNCLGDQKLVERLHMVLRPFLLRRIKADVEKSLPPKKEVKIYVGLSKMQREWYTRILMKDIDILNSAGKMDKMRLLNILMQLRKCCNHPYLFDGAEPGPPYTTDMHLVTNSGKMVVLDKLLPKLKEQGSRVLIFSQMTRVLDILEDYCMWRNYEYCRLDGQTPHDERQDSINAYNEPNSTKFVFMLSTRAGGLGINLATADVVILYDSDWNPQVDLQAMDRAHRIGQTKTVRVFRFITDNTVEERIVERAEMKLRLDSIVIQQGRLVDQNLNKIGKDEMLQMIRHGATHVFASKESEITDEDIDGILERGAKKTAEMNEKLSKMGESSLRNFTMDTESSVYNFEGEDYREKQKIAFTEWIEPPKRERKANYAVDAYFREALRVSEPKAPKAPRPPKQPNVQDFQFFPPRLFELLEKEILYYRKTIGYKVPRSPDLPNAAQAQKEEQLKIDEAEPLNDEELEEKEKLLTQGFTNWNKRDFNQFIKANEKWGRDDIENIAREVEGKTPEEVIEYSAVFWERCNELQDIEKIMAQIERGEARIQRRISIKKALDTKIGRYKAPFHQLRISYGTNKGKNYTEEEDRFLICMLHKLGFDKENVYDELRQCIRNSPQFRFDWFLKSRTAMELQRRCNTLITLIERENMELEEKEKAEKKKRGPKPSTQKRKMDGAPDGRGRKKKLKL
modifications: full-length
With B4, the “Pancreatic ECM: Mean of log2(intensities)” value is reported as 25.96 a.u and the “Native pancreas tissue: Mean of log2(intensities)” value was 20.98 a.u.

B5: Q9QZJ6 (protein, UniProt Q9QZJ6 1-164, looked up)
chain: MLFLGQKALLLVLAISIPSDWLPLGVSGQRGDDVPETFTDDPNLVNDPSTDDTALADITPSTDDLAGDKNATAECRDEKFACTRLYSVHRPVRQCVHQSCFTSLRRMYIINNEICSRLVCKEHEAMKDELCRQMAGLPPRRLRRSNYFRLPPCENMNLQRPDGL
modifications: full-length
In the case of B5, the “Pancreatic ECM: Mean of log2(intensities)” value worked out at 29.69 a.u and the “Native pancreas tissue: Mean of log2(intensities)” value is recorded as 22.53 a.u.

B6: P08121 (protein, UniProt P08121 1-1464, looked up)
chain: MMSFVQSGTWFLLTLLHPTLILAQQSNVDELGCSHLGQSYESRDVWKPEPCQICVCDSGSVLCDDIICDEEPLDCPNPEIPFGECCAICPQPSTPAPVLPDGHGPQGPKGDPGPPGIPGRNGDPGLPGQPGLPGPPGSPGICESCPTGGQNYSPQFDSYDVKSGVGGMGGYPGPAGPPGPPGPPGSSGHPGSPGSPGYQGPPGEPGQAGPAGPPGPPGALGPAGPAGKDGESGRPGRPGERGLPGPPGIKGPAGMPGFPGMKGHRGFDGRNGEKGETGAPGLKGENGLPGDNGAPGPMGPRGAPGERGRPGLPGAAGARGNDGARGSDGQPGPPGPPGTAGFPGSPGAKGEVGPAGSPGSNGSPGQRGEPGPQGHAGAQGPPGPPGNNGSPGGKGEMGPAGIPGAPGLIGARGPPGPAGTNGIPGTRGPSGEPGKNGAKGEPGARGERGEAGSPGIPGPKGEDGKDGSPGEPGANGLPGAAGERGPSGFRGPAGPNGIPGEKGPPGERGGPGPAGPRGVAGEPGRDGTPGGPGIRGMPGSPGGPGNDGKPGPPGSQGESGRPGPPGPSGPRGQPGVMGFPGPKGNDGAPGKNGERGGPGGPGLPGPAGKNGETGPQGPPGPTGPAGDKGDSGPPGPQGLQGIPGTGGPPGENGKPGEPGPKGEVGAPGAPGGKGDSGAPGERGPPGTAGIPGARGGAGPPGPEGGKGPAGPPGPPGASGSPGLQGMPGERGGPGSPGPKGEKGEPGGAGADGVPGKDGPRGPAGPIGPPGPAGQPGDKGEGGSPGLPGIAGPRGGPGERGEHGPPGPAGFPGAPGQNGEPGAKGERGAPGEKGEGGPPGPAGPTGSSGPAGPPGPQGVKGERGSPGGPGTAGFPGGRGLPGPPGNNGNPGPPGPSGAPGKDGPPGPAGNSGSPGNPGIAGPKGDAGQPGEKGPPGAQGPPGSPGPLGIAGLTGARGLAGPPGMPGPRGSPGPQGIKGESGKPGASGHNGERGPPGPQGLPGQPGTAGEPGRDGNPGSDGQPGRDGSPGGKGDRGENGSPGAPGAPGHPGPPGPVGPSGKSGDRGETGPAGPSGAPGPAGARGAPGPQGPRGDKGETGERGSNGIKGHRGFPGNPGPPGSPGAAGHQGAIGSPGPAGPRGPVGPHGPPGKDGTSGHPGPIGPPGPRGNRGERGSEGSPGHPGQPGPPGPPGAPGPCCGGGAAAIAGVGGEKSGGFSPYYGDDPMDFKINTEEIMSSLKSVNGQIESLISPDGSRKNPARNCRDLKFCHPELKSGEYWVDPNQGCKMDAIKVFCNMETGETCINASPMTVPRKHWWTDSGAEKKHVWFGESMNGGFQFSYGPPDLPEDVVDVQLAFLRLLSSRASQNITYHCKNSIAYMDQASGNVKKSLKLMGSNEGEFKAEGNSKFTYTVLEDGCTKHTGEWSKTVFEYQTRKAMRLPIIDIAPYDIGGPDQEFGVDIGPVCFL
modifications: full-length
With B6, the “Pancreatic ECM: Mean of log2(intensities)” value was found to be 29.90 a.u and the “Native pancreas tissue: Mean of log2(intensities)” value was determined as 22.28 a.u.

B7: Q9D023 (protein, UniProt Q9D023 1-127, looked up)
chain: MAAAGARGLRATYHRLMDKVELLLPKKLRPLYNHPAGPRTVFFWAPIMKWGLVCAGLADMARPAEKLSTAQSTVLMATGFIWSRYSLVIIPKNWSLFAVNFFVGSAGASQLFRIWRYNQELKSKGIQ
modifications: full-length
Turning to B7, the “Pancreatic ECM: Mean of log2(intensities)” value is listed as 27.53 a.u and the “Native pancreas tissue: Mean of log2(intensities)” value was 22.02 a.u.

B8: Q9CR64 (protein, UniProt Q9CR64 1-72, looked up)
chain: MSAIFNFQSLLTVILLLICTCAYIRSLAPSILDRNKTGLLGIFWKCARIGERKSPYVAICCIVMAFSILFIQ
modifications: full-length
Consider B8, for which the “Pancreatic ECM: Mean of log2(intensities)” value was determined as 26.22 a.u and the “Native pancreas tissue: Mean of log2(intensities)” value was determined as 21.06 a.u.
